Data on one substance can be found in article doi:10.1101/526152.

The chains behind the UniProt entries cited, without tags or fusion partners. Where a name states a change or a piece, a line headed by the entry shows the natural chain unless it says otherwise.
UniProt Q96QB1: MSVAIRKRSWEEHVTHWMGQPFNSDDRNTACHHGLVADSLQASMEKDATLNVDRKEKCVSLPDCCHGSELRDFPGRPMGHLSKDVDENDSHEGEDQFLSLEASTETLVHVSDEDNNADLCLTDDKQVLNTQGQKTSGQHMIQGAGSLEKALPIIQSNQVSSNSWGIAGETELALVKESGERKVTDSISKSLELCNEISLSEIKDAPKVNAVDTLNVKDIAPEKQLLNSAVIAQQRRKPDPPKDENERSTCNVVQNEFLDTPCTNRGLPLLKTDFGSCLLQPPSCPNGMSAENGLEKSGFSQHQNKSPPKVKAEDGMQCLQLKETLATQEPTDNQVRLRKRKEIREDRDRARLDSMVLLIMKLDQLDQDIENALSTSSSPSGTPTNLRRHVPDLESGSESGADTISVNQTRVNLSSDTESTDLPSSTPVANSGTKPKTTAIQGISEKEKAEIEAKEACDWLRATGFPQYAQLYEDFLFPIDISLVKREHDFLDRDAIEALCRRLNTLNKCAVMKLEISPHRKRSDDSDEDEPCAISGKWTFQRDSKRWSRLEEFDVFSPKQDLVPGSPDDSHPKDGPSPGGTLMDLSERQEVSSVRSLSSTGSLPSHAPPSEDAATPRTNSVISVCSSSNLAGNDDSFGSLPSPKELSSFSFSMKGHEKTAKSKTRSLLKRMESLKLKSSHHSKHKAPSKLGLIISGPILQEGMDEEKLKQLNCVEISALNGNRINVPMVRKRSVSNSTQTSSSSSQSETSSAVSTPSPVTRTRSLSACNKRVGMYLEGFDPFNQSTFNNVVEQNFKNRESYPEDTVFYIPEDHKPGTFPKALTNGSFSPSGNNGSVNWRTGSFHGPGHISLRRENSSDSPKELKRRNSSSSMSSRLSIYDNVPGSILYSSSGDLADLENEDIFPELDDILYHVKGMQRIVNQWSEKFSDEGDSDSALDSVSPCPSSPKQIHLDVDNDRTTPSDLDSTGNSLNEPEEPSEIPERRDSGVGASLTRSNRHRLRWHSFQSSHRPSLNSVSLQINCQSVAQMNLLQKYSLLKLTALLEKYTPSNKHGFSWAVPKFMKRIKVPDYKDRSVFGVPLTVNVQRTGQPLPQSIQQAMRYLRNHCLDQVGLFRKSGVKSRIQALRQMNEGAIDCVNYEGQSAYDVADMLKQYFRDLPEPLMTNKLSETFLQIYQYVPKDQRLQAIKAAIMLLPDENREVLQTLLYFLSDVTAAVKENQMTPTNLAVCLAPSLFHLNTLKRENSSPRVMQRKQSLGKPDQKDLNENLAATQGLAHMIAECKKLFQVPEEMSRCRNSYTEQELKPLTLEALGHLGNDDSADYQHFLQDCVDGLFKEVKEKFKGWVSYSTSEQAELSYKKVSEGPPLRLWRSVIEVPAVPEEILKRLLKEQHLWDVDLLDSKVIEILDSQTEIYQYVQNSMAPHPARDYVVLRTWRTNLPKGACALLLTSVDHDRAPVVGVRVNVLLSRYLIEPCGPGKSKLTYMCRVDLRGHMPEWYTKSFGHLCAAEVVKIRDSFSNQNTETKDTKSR
UniProt P46940: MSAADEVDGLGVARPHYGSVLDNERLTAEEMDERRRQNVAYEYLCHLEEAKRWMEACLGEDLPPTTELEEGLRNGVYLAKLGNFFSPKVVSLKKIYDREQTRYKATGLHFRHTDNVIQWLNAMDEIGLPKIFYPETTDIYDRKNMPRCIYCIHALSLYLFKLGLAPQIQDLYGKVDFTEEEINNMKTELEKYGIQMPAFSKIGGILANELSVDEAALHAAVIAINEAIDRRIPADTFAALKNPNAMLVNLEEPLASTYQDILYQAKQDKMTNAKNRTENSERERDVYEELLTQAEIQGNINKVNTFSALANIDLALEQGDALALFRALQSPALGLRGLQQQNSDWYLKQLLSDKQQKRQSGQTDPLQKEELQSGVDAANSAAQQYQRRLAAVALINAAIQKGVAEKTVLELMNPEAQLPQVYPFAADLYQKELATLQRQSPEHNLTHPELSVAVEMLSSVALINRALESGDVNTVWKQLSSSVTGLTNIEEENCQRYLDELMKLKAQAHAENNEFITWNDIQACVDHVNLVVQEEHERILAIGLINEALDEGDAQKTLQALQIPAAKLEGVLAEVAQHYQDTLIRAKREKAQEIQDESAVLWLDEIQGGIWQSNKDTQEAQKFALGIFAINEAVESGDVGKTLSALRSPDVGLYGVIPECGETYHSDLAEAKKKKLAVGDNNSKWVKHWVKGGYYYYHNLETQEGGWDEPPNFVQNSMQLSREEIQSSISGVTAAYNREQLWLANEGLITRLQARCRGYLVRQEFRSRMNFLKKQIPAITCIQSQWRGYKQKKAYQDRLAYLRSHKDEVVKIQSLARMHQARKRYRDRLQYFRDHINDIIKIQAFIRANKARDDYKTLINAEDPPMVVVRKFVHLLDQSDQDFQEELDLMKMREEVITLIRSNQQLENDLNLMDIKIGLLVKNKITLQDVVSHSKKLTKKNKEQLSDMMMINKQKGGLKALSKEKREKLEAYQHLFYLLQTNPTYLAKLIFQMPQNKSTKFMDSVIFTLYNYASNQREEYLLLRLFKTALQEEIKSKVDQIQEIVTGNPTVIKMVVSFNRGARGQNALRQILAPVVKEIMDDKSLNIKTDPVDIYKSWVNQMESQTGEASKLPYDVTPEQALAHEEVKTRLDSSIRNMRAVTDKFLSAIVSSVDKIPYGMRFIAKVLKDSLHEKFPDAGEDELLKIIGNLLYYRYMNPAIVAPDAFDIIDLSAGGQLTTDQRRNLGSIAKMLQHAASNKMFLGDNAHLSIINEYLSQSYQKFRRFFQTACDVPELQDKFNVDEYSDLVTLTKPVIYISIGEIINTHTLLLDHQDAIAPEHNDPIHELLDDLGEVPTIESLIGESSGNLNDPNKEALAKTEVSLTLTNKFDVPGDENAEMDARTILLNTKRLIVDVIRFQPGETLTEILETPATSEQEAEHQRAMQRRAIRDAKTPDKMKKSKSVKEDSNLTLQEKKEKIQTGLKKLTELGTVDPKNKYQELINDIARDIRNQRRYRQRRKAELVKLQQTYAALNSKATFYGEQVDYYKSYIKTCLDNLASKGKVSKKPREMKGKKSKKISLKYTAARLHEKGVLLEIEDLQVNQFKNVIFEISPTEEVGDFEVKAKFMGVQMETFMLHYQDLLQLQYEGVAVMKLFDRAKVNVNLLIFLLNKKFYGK

No constants are given. Whether binding was seen depends on the method and setting. In cells and extracts the contact can be indirect. Here binding means that the protein was enriched with, or labelled near, the bait; the list need not be complete.

This test has as its target p122RhoGTPase-activating protein (GAP)/deleted in liver cancer-1 (p122RhoGAP/DLC-1) (human (endogenous in skin fibroblasts)) (UniProt Q96QB1). Description: affinity purification with mass spectrometry.

On to “IQ motif-containing GTPase-activating protein 1 (IQGAP1) (from UniProt P46940 1-1657)”, for which the binding entry is reported as “binds”.
